The other results are listed elsewhere or left out. Values are raw readings; no control value is given beside them.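 First-pass screen: polymyxin B was added at a level that permeabilizes the Salmonella outer membrane while sparing the inner membrane. DMSO wells, with and without polymyxin B, defined maximum growth. Because plates differed from one another, each plate's data were ranked separately and the compounds with the lowest OD600 were carried forward as hits.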
Test system: Salmonella enterica serovar Typhimurium SL1344
Test: bacterial growth OD600 after 18 h with compound and polymyxin B; higher = more bacterial growth (less inhibition)
Conditions: 50 µM, Mueller-Hinton broth

Structure (SMILES) | bacterial growth OD600 (polymyxin B 1 µg/mL) | bacterial growth OD600 (polymyxin B 0.75 µg/mL)
CCOC(=O)C1(CCOc2ccccc2)CCN(Cc2ccccc2OC)CC1 | 0.873 | 
CN(Cc1ccc(F)cc1)c1ccc(OCC(=O)N2CCN(C/C=C/c3ccccc3)CC2)nn1 |  | 0.803
COc1c(C)cc(C(=O)C2CCCN(Cc3cnn(C)c3)C2)cc1C (centres undefined) | 0.94 | 
CC(C)Oc1cccc(C(=O)C2CCCN(CCCn3cccn3)C2)c1 (centres undefined) |  | 0.756
COc1c(C)cc(C(=O)C2CCCN(C3CCC3)C2)cc1C (centres undefined) | 0.94 | 
CCN1CCN(C(=O)c2ccc(N3CCC(NC(C)Cc4ccccn4)CC3)cc2)CC1 (centres undefined) |  | 0.968
CCOC(=O)C1(CCOc2ccccc2)CCN(Cc2cccc(O)c2)CC1 | 0.808 | 
CC(C)NC(=O)c1cn(Cc2ccccc2)cc(C(=O)N2CCC(Cc3ccccc3)CC2)c1=O |  | 0.355
CC(=O)C1(c2ccccc2)CCN(C(=O)C2CCC(=O)N(CCN3CCOCC3)C2)CC1 (centres undefined) | 0.956 | 
CN(Cc1ccccc1)C1CCCN(C(=O)Cc2n[nH]c3ccccc23)C1 (centres undefined) |  | 0.828
COc1ccccc1Cn1cc(C(=O)NCCC(C)C)c(=O)c(C(=O)N(C)CCc2ccccn2)c1 |  | 0.759
Cc1oc(-c2cc(F)cc(F)c2)nc1CN1C[C@@H]2C[C@H](C1)c1cccc(=O)n1C2 | 0.975 | 
CC(C)N1CCN(Cc2c[nH]c3ccccc23)CC1CCO (centres undefined) | 0.831 | 
CCNC(=O)c1cn(CC2CCCCC2)cc(C(=O)N2CCN(c3ccc(C(C)=O)cc3)CC2)c1=O |  | 0.909
COc1cccc(CN2CCCC(C(=O)c3ccc(SC)cc3)C2)c1 (centres undefined) | 0.646 | 
O=C1O[C@@H]2CN(C3CSCCSC3)C[C@@H]2N1CCc1ccccn1 |  | 0.774
Cc1nc(C)c(CC(=O)N2CCCC(N3CCN(c4ccccc4C)CC3)C2)s1 (centres undefined) | 1 | 
CC1(C)C(C(=O)N2CCCC(CNC(=O)c3ccc(F)cc3)C2)C1(C)C (centres undefined) | 0.915 | 
COc1ccc(CC(=O)Nc2ccc(N3CCC(NC(C)Cc4cccnc4)CC3)cc2)cc1 (centres undefined) |  | 1.02
COc1ccc(F)cc1C(=O)C1CCCN(Cc2ccc(F)c(F)c2)C1 (centres undefined) | 0.64 | 
CC(Cc1cncs1)NC1CCN(c2cccc(NC(=O)CCCc3ccccc3)c2)CC1 (centres undefined) |  | 0.825
Cc1ccccc1Cn1cc(C(=O)N(Cc2ccccc2)CC2CCC2)nn1 | 0.485 | 
CN(Cc1ccc(F)cc1)c1ccc(OCC(=O)N2CCCN(Cc3cccc(F)c3)CC2)nn1 |  | 0.85
CCCn1ncc(CN2CCCC(C(=O)c3ccc(Cl)cc3C)C2)c1C (centres undefined) | 0.803 | 
Cc1cc2nc(N3CCC(NC(C)Cc4cccs4)CC3)nc(C)c2cc1C (centres undefined) |  | 0.866
COC(C(=O)Nc1ccnn1C1CCN(C(=O)C2C(C)(C)C2(C)C)CC1)c1ccccc1 (centres undefined) | 0.833 | 
COc1cccc(C(=O)C2CCCN(Cc3c(F)ccc(F)c3F)C2)c1 (centres undefined) | 0.672 | 
O=C1O[C@@H]2CN(Cc3ncc[nH]3)C[C@@H]2N1CCc1ccccn1 | 0.961 | 
CC(C)CCn1cc(C(=O)NC2CCCC2)c(=O)c(C(=O)N(C)CCc2ccccn2)c1 |  | 0.805

Of the compounds above, these have an NH in an aromatic ring:
Structure (SMILES) | bacterial growth OD600 (polymyxin B 1 µg/mL) | bacterial growth OD600 (polymyxin B 0.75 µg/mL)
CN(Cc1ccccc1)C1CCCN(C(=O)Cc2n[nH]c3ccccc23)C1 (centres undefined) |  | 0.828
CC(C)N1CCN(Cc2c[nH]c3ccccc23)CC1CCO (centres undefined) | 0.831 | 
O=C1O[C@@H]2CN(Cc3ncc[nH]3)C[C@@H]2N1CCc1ccccn1 | 0.961 | 

Reference: the supplement of paper PMC12889115
